In the supplement of paper PMC12889115:
This is one part of the list. Values are raw readings; no control value is given beside them.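 First-pass screen: polymyxin B was added at a level that permeabilizes the Salmonella outer membrane while sparing the inner membrane. DMSO wells, with and without polymyxin B, defined maximum growth. Because plates differed from one another, each plate's data were ranked separately and the compounds with the lowest OD600 were carried forward as hits.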

Tested on: Salmonella enterica serovar Typhimurium SL1344
Test: bacterial growth OD600 after 18 h with compound and polymyxin B; higher = more bacterial growth (less inhibition)
Conditions: 50 µM, Mueller-Hinton broth

SMILES | bacterial growth OD600 (polymyxin B 1 µg/mL) | bacterial growth OD600 (polymyxin B 0.75 µg/mL)
COc1cc(-c2n[nH]cc2CN(CCO)Cc2cccs2)cc(OC)c1OC | 1.17 | –
O=C(NCC1CCCO1)c1ccc2oc(Cc3ccc(Cl)cc3)nc2c1 (configuration not stated) | – | 0.007
CCN1CCN(C2(C(=O)N(C)CC3CCOCC3)Cc3ccccc3C2)CC1 | – | 0.858
CCN(CCn1cccn1)C(=O)c1ccc(OC2CCN(C(=O)C3CC3)CC2)cc1 | 0.905 | –
O=C(C1CCC1)N1CCc2onc(-c3ccc(Cl)cc3)c2C1 | – | 0.571
CCC(=O)N(C)C(Cc1ccc(F)cc1F)C1CCN(C(=O)C2CC(=O)c3ccccc32)CC1 (configuration not stated) | – | 0.846
COc1cc(CC2(CCC(=O)NCC3C4CC5CC(C4)CC3C5)CCC(=O)N2)ccc1F (configuration not stated) | – | 0.849
CN(Cc1cccnc1)C(=O)c1csc2nc(-c3ccc(C(F)(F)F)cc3)cn12 | 1.07 | –
COC(=O)c1c(OC2CCCC2)cc(=O)n2c1CCN(C(=O)c1cc3ccccc3n1C)CC2 | – | 0.007
CC(Cc1cnccn1)NC(=O)c1cc(COc2cncc(Cl)c2)on1 (configuration not stated) | 1.01 | –
CCCn1c(C)c(CC(=O)NCCn2cccn2)c2c1CC(C)(C)CC2=O | 0.894 | –
COc1ccc(CCN(C)C2CCCN(C(=O)c3ccoc3C)C2)cc1OC (configuration not stated) | 0.712 | –
O=C1CCCCN1CCNc1ccc(-c2nc(Cc3ccccc3)no2)cn1 | – | 0.718
CN1C(=O)CC(CC(=O)N2CCC(c3ccccc3Cl)C2)(c2ccc(-c3ccccc3)cc2)C1=O (configuration not stated) | – | 0.538
O=C(CC1C(=O)NCCN1Cc1cccc(F)c1F)NCCCc1ccccc1 (configuration not stated) | 0.808 | –
COc1ccc(F)c(CN2CCOc3ccc(C(C)(O)COc4ccccc4)cc3C2)c1 (configuration not stated) | – | 0.791

SMILES | bacterial growth OD600 (polymyxin B 1 µg/mL) | bacterial growth OD600 (polymyxin B 0.75 µg/mL)
CSc1ncc(CNCC2(N3CCCCC3)Cc3ccccc3C2)cn1 | – | 0.806
Cc1oc(-c2ccc(NC(=O)Cc3ccccc3)cc2)nc1CNC(=O)c1cc(C(C)C)n[nH]1 | – | 0.837
COc1cccc(CC2(CCC(=O)NCCCc3ccccc3)CCC(=O)N2)c1 (configuration not stated) | – | 0.875
CCOC(=O)C1CCCCN1C(=O)CSc1ccc2nnc(-c3cccnc3)n2n1 (configuration not stated) | – | 0.858
Cn1cc(CN2CCCC(CCc3c(F)cccc3F)C2)cn1 (configuration not stated) | – | 0.677
CCOC(=O)N1CCC(NC2CCN(c3ccc(NC(=O)CCc4ccccc4)cc3)CC2)CC1 | – | 0.861
CSCCC(=O)N1CCCCC1C(=O)Nc1ccc(-n2nc(C)cc2C)cc1 (configuration not stated) | 0.945 | –
Cc1cccc(-c2cccc(NC(=O)C3CCCN3C(=O)c3cn[nH]c3)c2)c1 (configuration not stated) | – | 0.457
Cc1ocnc1C(=O)NC1CC(=O)N(Cc2ccccc2C(F)(F)F)C1 (configuration not stated) | 1.09 | –
Cc1ncsc1CCC(=O)N1CCOc2ccc(CN3CCC(Oc4cccnc4)CC3)cc2C1 | – | 0.852
COCCNC(=O)c1cccc(OC2CCN(Cc3ccc(OC)cc3OC)CC2)c1 | 0.954 | –
CO[C@H]1[C@H](NC(=O)Cc2cccs2)c2ccccc2C12CCN(Cc1cccc3cccnc13)CC2 | – | 0.909
O=C(c1cc(Cl)ccc1OC1CCN(C2CCCC2)CC1)N1CCSCC1 | 0.943 | –
c1ccc(CNc2nc3nonc3nc2NC2CC2)cc1 | 0.968 | –
Cc1ccc(-c2cnnc(NCc3n[nH]c4c3CCCCC4)n2)o1 | – | 0.839
Cc1nc(C(C)NC(=O)c2cc(COc3ccccc3)[nH]n2)cs1 (configuration not stated) | 0.923 | –

2 consecutive compounds from above, quoted:
SMILES | bacterial growth OD600 (polymyxin B 1 µg/mL) | bacterial growth OD600 (polymyxin B 0.75 µg/mL)
CN1C(=O)CC(CC(=O)N2CCC(c3ccccc3Cl)C2)(c2ccc(-c3ccccc3)cc2)C1=O (configuration not stated) | – | 0.538
O=C(CC1C(=O)NCCN1Cc1cccc(F)c1F)NCCCc1ccccc1 (configuration not stated) | 0.808 | –
